The structures appear in SMILES notation.

Consider one compound from US12453746B2, “Use of akkermansia muciniphila in preparation of pharmaceutical composition or health care product composition for improving metabolic syndrome” (GUANGZHOU ZHIYI BIOTECHNOLOGY CO., LTD., priority 2022, dated 2025).

The experiment deals with metabolic syndrome rats. As to the kind of experiment: Efficacy on metabolic syndrome in rats fed high-fat and high-sugar feed. The format is in vivo, SD rats. The text has this:
One hundred SPF-grade male SD rats with weight of 160-180 g were subjected to adaptive feeding for 1 week, and 80 rats were randomly selected and fed with a high-fat and high-sugar feed for 8 weeks to perform metabolic syndrome modeling. The formula of the high-fat and high-sugar feed (in percentage by mass, wt %) were: 66.5% of basal feed, 2.5% of cholesterol, 20% of sucrose, 10% of lard, and 1% of cholate. The remaining 20 rats were fed with a basal feed.
After 8 weeks of feeding, 70 rats that were successfully modeled were selected according to the levels of body weight, body length, blood pressure, blood fat, fasting blood glucose, and the like, and randomly divided into 8 groups, with 10 rats in each group: model group, positive drug group (atorvastatin calcium, Pfizer Inc., 15 mg/kg), AKK bacteria AM06 live bacteria low dose group (10^6 CFU/rat), high dose group (10^10 CFU/rat), AM02 live bacteria group (10^10 CFU/rat), AM02 live bacteria (10^10 CFU/rat) in combination with atorvastatin calcium (15 mg/kg) group, and AKK bacteria AM06 and AM02 inactivated bacteria groups (10^10 cells/rat). Another 10 unmodeled rats were used as a normal control group.
Administration was performed after the grouping (DO): For the normal control group and the model group, 1 mL of normal saline was administered by intragastric administration once daily; for each of the treatment groups, the corresponding dose of the medicament was administered by intragastric administration once daily for consecutively 8 weeks. During the grouping and administration, the normal control group was fed with a basal feed, and the model group and each treatment group were fed with a high-fat and high-sugar feed.
After the last intragastric administration, the body length and the body weight of the rats were recorded. The Lee's index was calculated by the following formula: Lee's index=body weight (g)^1/3×1000×body length (cm)^−1; after the last intragastric administration, the rats were fasted but had free access to water for 12 h, the tail artery systolic blood pressure (SBP) was measured by a non-invasive blood pressure instrument, and the fasting blood glucose level (FBG) was detected by a glucometer; the rats were anesthetized with chloral hydrate, blood was collected from the abdominal aorta, the serum was separated, the serum insulin level (Fins) was measured by ELISA, and the insulin resistance index (HOMA-IR) was calculated as: HOMA-IR=FBG×Fins/22.5; serum triglyceride (TG), Total cholesterol (TC), low density lipoprotein (LDL-c), and high density lipoprotein (HDL-c) were measured by an automatic biochemical analyzer. All data were statistically analyzed using SPSS 25.0.p<0.05 was considered to have a statistical difference.

[1] abbreviates: intragastric once daily 8 weeks, atorvastatin calcium 15 mg/kg.

Regarding `CC(C)c1c(C(=O)Nc2ccccc2)c(-c2ccccc2)c(-c2ccc(F)cc2)n1CC[C@@H](O)C[C@@H](O)CC(=O)[O-].CC(C)c1c(C(=O)Nc2ccccc2)c(-c2ccccc2)c(-c2ccc(F)cc2)n1CC[C@@H](O)C[C@@H](O)CC(=O)[O-].[Ca+2]` [Positive drug, atorvastatin calcium], the “HDL-c level compared with the model group” value is given as “significantly increased”, the “LDL-c level compared with the model group” value is listed as “significantly decreased”, the “Lee's index compared with the model group” value is “significant difference” and the “TC level compared with the model group” value was “significantly decreased”. The “TG level compared with the model group” value is listed as “significantly decreased”. For the same compound, under “fasting blood glucose, 8 weeks, atorvastatin calcium 15 mg/kg”, the FBG is 6.40 ± 1.08 mmol/L. Besides, the HOMA-IR (insulin resistance index = FBG×Fins/22.5, 8 weeks, atorvastatin calcium 15 mg/kg) was found to be 3.02 ± 1.25. Further, under setting [1], the Body mass is on record as 460.15 ± 74.62 g and the “Lee's index” value is listed as 273.82 ± 78.48. In addition, the HDL-c (serum high density lipoprotein, 8 weeks, atorvastatin calcium 15 mg/kg) stood at 0.85 ± 0.25 mmol/L. Moreover, the Fins (serum insulin, ELISA, 8 weeks, atorvastatin calcium 15 mg/kg) is reported as 14.22 ± 3.10 mIU/L. For the same compound, for the setting “serum low density lipoprotein, 8 weeks, atorvastatin calcium 15 mg/kg”, the LDL-c was determined as 1.14 ± 0.31 mmol/L. Moreover, the TC (serum total cholesterol, 8 weeks, atorvastatin calcium 15 mg/kg) is 1.44 ± 0.77 mmol/L. In addition, under “serum triglyceride, 8 weeks, atorvastatin calcium 15 mg/kg”, the TG worked out at 0.73 ± 0.28 mmol/L. Where the note is “tail artery systolic blood pressure, 8 weeks, atorvastatin calcium 15 mg/kg”, the SBP came out at 123.42 ± 31.01 mmHg.
